Measurements reported in article PMC2807451.
These are yes or no findings as the source states them, for the method shown. In cells and extracts the contact can be indirect. Some binding calls cover weakened binding; strength is not graded here.

By UniProt entry, the sequences of proteins in these tests, tags left out.
UniProt Q14457: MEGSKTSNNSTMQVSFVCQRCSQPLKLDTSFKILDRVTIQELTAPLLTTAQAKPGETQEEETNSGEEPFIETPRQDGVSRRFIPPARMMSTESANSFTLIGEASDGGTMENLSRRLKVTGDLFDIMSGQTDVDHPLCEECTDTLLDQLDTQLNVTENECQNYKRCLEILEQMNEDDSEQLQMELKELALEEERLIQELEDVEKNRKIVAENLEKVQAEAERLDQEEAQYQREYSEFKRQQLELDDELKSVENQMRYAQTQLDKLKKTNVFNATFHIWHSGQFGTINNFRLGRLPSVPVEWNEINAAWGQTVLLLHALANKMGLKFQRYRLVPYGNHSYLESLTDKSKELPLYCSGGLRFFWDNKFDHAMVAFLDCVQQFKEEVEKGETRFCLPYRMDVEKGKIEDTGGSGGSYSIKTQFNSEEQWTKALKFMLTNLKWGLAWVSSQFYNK
UniProt P10415: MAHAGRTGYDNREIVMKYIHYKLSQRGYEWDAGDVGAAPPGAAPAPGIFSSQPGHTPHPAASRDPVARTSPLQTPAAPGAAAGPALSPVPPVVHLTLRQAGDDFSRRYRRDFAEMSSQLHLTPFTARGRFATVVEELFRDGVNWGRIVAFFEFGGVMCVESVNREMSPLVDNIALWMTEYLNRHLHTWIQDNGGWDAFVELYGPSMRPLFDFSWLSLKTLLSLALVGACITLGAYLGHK

What was measured:
[1] = biological target: Beclin 1 (human (endogenous in HCT116-BaxKO)) (UniProt Q14457); test: co-IP; endogenous proteins immunoprecipitated from HCT116-BaxKO lysates (1% CHAPS, 10 mM HEPES, 150 mM NaCl, protease inhibitors), 500 ug proteins, 2 ug antibody (anti-Beclin 1, anti-Bcl-2 or anti-Bcl-xL), Protein G-agarose; cells grown in complete medium or starved for 6 hours; Western blot
[2] = biological target: Bcl-2 (human (endogenous in HCT116-BaxKO)) (UniProt P10415); test: as above

| binding [1] | binding [2] | Substance |
| --- | --- | --- |
| binds | – | Bcl-2 (from UniProt P10415 1-239) |
| – | binds | Beclin 1 (from UniProt Q14457 1-450) |
